From ChEMBL document CHEMBL3988442, “University of Dundee, Small-Polar-MMV Screening Library” (2021).

Chains of the proteins cited; added tags and fusions are not shown. Residues count along the entry.
UniProt P9WFT3, whole entry: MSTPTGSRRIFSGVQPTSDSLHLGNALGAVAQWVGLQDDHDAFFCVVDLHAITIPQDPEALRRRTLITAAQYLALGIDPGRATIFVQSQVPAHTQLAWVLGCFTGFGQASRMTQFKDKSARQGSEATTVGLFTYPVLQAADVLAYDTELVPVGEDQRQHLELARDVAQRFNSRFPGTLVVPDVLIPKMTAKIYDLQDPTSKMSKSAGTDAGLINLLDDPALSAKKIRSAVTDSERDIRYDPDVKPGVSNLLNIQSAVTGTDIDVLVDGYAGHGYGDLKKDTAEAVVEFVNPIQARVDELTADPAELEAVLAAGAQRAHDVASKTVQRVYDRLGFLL
UniProt I6X8D2, whole entry: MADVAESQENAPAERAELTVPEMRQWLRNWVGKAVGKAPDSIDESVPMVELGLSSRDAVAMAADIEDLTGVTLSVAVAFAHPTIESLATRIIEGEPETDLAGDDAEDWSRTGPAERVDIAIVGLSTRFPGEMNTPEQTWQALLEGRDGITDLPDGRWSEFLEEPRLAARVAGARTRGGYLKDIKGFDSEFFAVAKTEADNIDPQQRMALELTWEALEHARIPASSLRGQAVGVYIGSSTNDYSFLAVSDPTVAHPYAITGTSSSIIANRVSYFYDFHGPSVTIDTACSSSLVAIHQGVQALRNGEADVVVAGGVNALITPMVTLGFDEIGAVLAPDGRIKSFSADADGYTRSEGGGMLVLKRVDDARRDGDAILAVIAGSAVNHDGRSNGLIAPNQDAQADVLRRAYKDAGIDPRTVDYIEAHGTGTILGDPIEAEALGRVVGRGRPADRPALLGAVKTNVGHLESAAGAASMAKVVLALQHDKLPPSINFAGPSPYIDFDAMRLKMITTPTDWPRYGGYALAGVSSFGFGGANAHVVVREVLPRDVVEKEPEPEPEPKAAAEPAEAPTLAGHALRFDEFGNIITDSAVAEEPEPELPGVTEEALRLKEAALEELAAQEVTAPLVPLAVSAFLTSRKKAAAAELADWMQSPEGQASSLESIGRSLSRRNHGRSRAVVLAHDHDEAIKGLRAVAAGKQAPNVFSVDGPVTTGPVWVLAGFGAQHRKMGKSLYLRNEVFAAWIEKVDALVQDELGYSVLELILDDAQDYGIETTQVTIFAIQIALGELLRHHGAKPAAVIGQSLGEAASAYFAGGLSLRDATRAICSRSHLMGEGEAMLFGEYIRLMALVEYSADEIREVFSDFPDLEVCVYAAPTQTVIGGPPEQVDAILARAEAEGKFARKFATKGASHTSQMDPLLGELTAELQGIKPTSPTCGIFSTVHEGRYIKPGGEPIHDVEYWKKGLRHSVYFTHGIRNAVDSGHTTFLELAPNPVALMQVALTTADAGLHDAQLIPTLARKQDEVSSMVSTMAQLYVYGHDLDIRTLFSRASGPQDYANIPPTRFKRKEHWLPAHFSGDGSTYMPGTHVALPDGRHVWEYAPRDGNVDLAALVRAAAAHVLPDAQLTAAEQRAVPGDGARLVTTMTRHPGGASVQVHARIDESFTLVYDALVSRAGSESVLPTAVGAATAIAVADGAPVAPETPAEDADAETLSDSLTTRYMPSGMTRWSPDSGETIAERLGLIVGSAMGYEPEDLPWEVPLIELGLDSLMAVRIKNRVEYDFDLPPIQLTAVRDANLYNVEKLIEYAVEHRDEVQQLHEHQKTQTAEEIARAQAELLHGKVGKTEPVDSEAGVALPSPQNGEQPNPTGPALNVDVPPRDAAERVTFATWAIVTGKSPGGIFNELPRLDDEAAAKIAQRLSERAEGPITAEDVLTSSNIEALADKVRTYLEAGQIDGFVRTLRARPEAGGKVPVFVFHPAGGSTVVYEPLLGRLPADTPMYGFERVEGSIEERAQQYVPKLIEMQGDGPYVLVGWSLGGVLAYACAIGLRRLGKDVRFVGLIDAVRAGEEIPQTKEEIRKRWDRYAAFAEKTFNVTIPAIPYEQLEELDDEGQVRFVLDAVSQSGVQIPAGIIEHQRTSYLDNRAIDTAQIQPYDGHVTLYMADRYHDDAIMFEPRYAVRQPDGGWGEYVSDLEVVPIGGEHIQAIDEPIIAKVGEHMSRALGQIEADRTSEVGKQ
UniProt A4I591, 1-473: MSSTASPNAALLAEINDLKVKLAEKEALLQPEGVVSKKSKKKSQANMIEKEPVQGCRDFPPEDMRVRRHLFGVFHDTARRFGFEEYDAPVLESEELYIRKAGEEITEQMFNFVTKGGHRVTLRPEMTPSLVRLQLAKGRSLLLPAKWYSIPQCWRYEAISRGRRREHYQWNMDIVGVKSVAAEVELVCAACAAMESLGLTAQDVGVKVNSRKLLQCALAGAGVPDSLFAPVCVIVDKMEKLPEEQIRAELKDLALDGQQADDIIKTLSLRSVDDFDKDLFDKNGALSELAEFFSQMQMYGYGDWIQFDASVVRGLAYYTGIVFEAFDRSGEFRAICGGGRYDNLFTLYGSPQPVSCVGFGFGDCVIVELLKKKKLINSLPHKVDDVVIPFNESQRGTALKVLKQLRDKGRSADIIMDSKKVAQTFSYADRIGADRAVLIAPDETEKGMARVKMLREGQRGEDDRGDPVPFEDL
UniProt Q8IDJ8, 1-583: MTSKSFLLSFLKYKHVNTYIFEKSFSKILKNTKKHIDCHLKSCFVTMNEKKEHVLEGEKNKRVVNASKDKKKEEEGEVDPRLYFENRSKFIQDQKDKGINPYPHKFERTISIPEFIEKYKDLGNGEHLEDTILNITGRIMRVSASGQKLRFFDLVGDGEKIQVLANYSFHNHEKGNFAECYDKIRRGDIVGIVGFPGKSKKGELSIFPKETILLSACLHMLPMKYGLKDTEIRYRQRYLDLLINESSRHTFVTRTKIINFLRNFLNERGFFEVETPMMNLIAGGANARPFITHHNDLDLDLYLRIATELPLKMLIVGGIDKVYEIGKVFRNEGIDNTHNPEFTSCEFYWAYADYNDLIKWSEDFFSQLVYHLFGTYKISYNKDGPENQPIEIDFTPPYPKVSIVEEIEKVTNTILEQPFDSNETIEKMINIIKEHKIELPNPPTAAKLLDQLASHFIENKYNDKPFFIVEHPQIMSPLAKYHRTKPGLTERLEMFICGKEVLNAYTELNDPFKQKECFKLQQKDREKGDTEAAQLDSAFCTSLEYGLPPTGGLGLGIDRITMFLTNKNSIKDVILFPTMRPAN

MtTrpRS: 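Enzyme assay of tryptophanyl-tRNA synthetase; the read-out is not stated. Target: Tryptophan-tRNA ligase, Mycobacterium tuberculosis (UniProt P9WFT3). Compounds at 10 µM. Higher most likely means stronger inhibition; the record gives no direction and few retests gave an IC50. Size under these conditions: about 65,000 compounds, about 64 of them at 50% or above in at least one test.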
Pks13 thioesterase: 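Polyketide synthase Pks13, Mycobacterium tuberculosis (UniProt I6X8D2). Enzyme assay of the thioesterase domain of polyketide synthase 13; the read-out is not stated. Concentration: 30 µM. The record gives no direction; the compounds picked for IC50 retests had high values, so higher reads as stronger inhibition. Of about 67,000 compounds tested this way, about 300 (0.46%) reached 50% or more in at least one test.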
LiHisRS: 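Enzyme assay of histidyl-tRNA synthetase; the read-out is not stated. Target: Histidine-tRNA ligase, Leishmania infantum (UniProt A4I591). Concentration: 30 µM. Higher reads as stronger inhibition (inferred: compounds with an IC50 in retests scored well above the rest). The assay is labelled LdHisRS but filed under L. infantum. About 69,000 compounds were tested under these conditions; 0.6% (about 410) showed 50% or more at least once.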
PfKRS1: 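Enzyme assay of the cytosolic lysyl-tRNA synthetase in 384-well plates, read by luminescence. Target: Lysine-tRNA ligase, Plasmodium falciparum 3D7 (UniProt Q8IDJ8). Tested at 30 µM. Direction is inferred from only a few compounds that gave an IC50; most scored high, so higher reads as stronger inhibition. Size under these conditions: about 69,000 compounds, about 49 of them at 50% or above in at least one test.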

Values are the deposited “Percent Effect”, in %. How 0% and 100% were set is not recorded. Most values in the screen are low, and negative values occur. Compounds were drawn at random from those tested, without regard to their results.

{"smiles": "Cn1cccc1C(=O)N1C[C@@H]2CCCO[C@@H]2[C@H](N2CCOCC2)C1", "MtTrpRS": -3.171, "Pks13 thioesterase": -38.07, "LiHisRS": 17.54, "PfKRS1": 0.7467}
{"smiles": "CCS(=O)(=O)N1CCC(n2nc(-c3cc(C)oc3C)ccc2=O)CC1", "MtTrpRS": -4.28, "Pks13 thioesterase": 3.667, "LiHisRS": 2.817, "PfKRS1": 4.431}
{"smiles": "CCc1cnc(C)nc1N1CCN(C(N)=O)CC1", "MtTrpRS": 4.025, "Pks13 thioesterase": -35, "LiHisRS": 7.692, "PfKRS1": 2.92}
{"smiles": "Cc1nnc2n1CCN(Cc1ncc(-c3ccc(F)cc3)o1)C2", "MtTrpRS": -15, "Pks13 thioesterase": -2.122, "LiHisRS": 3.571, "PfKRS1": -0.4737}
{"smiles": "Cc1ncsc1C(=O)NCCNC(=O)Cc1cccc(F)c1", "MtTrpRS": -5.844, "Pks13 thioesterase": -1.654, "LiHisRS": 9.091, "PfKRS1": 1.397}
{"smiles": "Cc1ccc(-n2ccnc2)c(C(=O)NCCCN(C)C)c1", "MtTrpRS": -0.9091, "Pks13 thioesterase": -21.08, "LiHisRS": 13.13, "PfKRS1": 7.618}
{"smiles": "Cc1cnc(CN(C)C2CCN(Cc3nnc(C4CC4)o3)C2)o1", "stereo": "centres unmarked", "MtTrpRS": 7.325, "Pks13 thioesterase": -25.69, "LiHisRS": 8.547, "PfKRS1": 2.023}
{"smiles": "Cc1nc(COc2ccc(CNCCn3cccn3)cc2)cs1", "MtTrpRS": 1.81, "Pks13 thioesterase": 2.073, "LiHisRS": -2.679, "PfKRS1": 3.843}
{"smiles": "Cn1c(C(=O)NC(Cc2ccsc2)c2cccnc2)cc(=O)n(C)c1=O", "stereo": "centres unmarked", "MtTrpRS": -7.104, "Pks13 thioesterase": 9.736, "LiHisRS": 7.092, "PfKRS1": 1.48}
{"smiles": "CC1(C(=O)NCCc2ccc(F)cc2)CCOCC1", "MtTrpRS": -7.347, "Pks13 thioesterase": -10.44, "LiHisRS": 2.759, "PfKRS1": -0.7003}
{"smiles": "CC(Cn1cc(Br)cn1)C(=O)Nc1ccncc1", "stereo": "centres unmarked", "MtTrpRS": 2.724, "Pks13 thioesterase": -7.609, "LiHisRS": 21.24, "PfKRS1": 3.215}
{"smiles": "CCc1nsc(N2CCN(Cc3ccno3)CC2)n1", "MtTrpRS": 2.119, "Pks13 thioesterase": -30.57, "LiHisRS": 7.042, "PfKRS1": 1.773}
{"smiles": "Cc1nc(N)cc(NCc2csc(N(C)C)n2)n1", "MtTrpRS": 2.22, "Pks13 thioesterase": 5.805, "LiHisRS": 29.41, "PfKRS1": 4.319}
{"smiles": "c1ccc2c(c1)N(CC1CCOC1)CC21CCN(c2cnccn2)CC1", "stereo": "centres unmarked", "Pks13 thioesterase": 25.69, "LiHisRS": 39.09, "PfKRS1": 3.711}
{"smiles": "CC(C)n1ncc2c1NC(=O)CC21C(=O)Nc2c(Cl)cc(Br)cc21", "stereo": "centres unmarked", "MtTrpRS": -1.611, "Pks13 thioesterase": -21.2, "LiHisRS": 13.16, "PfKRS1": 0.5819}
{"smiles": "CCC[C@@H]1CN(S(=O)(=O)c2ccc(C)c(F)c2)C[C@H]1N(C)C", "MtTrpRS": 0.5329, "Pks13 thioesterase": -9.161, "LiHisRS": 6.796, "PfKRS1": 5.94}
{"smiles": "CCC(C)NC(=O)CS(=O)(=O)Cc1cc(Cl)ccc1OC", "stereo": "centres unmarked", "MtTrpRS": 4.369, "Pks13 thioesterase": -34.64, "LiHisRS": 11.67, "PfKRS1": 0.03791}
{"smiles": "O=C(NC1CCN(CC2CCCC2)C1)N1CCC(OCC2CC2)CC1", "stereo": "centres unmarked", "MtTrpRS": -1.052, "Pks13 thioesterase": -1.071, "LiHisRS": 23.6, "PfKRS1": 4.757}
{"smiles": "COc1cc(CNC(C)Cn2ccnc2)cc2c1OCO2", "stereo": "centres unmarked", "MtTrpRS": -1.899, "Pks13 thioesterase": -12.35, "LiHisRS": 9.91, "PfKRS1": 17.16}
{"smiles": "COc1c(C2CCCN2C(=O)c2c(C)noc2C(C)C)c(C)nn1C", "stereo": "centres unmarked", "MtTrpRS": -3.897, "Pks13 thioesterase": -6.58, "LiHisRS": 1.695, "PfKRS1": 1.618}
{"smiles": "Cc1ccc(C(=O)N2CCN(CCC(C)(C)C)CC2)c(=O)[nH]1", "MtTrpRS": 3.489, "Pks13 thioesterase": 7.845, "LiHisRS": -6.383, "PfKRS1": 0.2813}
{"smiles": "O=C([C@H]1C[C@@H]2CCN(c3cccc(F)c3)C[C@H]2O1)N1CCCC1", "MtTrpRS": -4.344, "Pks13 thioesterase": -4.461, "LiHisRS": 15.28, "PfKRS1": -3.232}
{"smiles": "CC(=O)NCCNC(=O)NCCCc1cccc(F)c1", "MtTrpRS": -1.72, "Pks13 thioesterase": -2.485, "LiHisRS": 4.959, "PfKRS1": 3.104}
{"smiles": "Cc1ccc(-c2ncc(C(=O)N3CCN4CCCCC4C3)c(O)n2)cc1", "stereo": "centres unmarked", "MtTrpRS": -4.503, "Pks13 thioesterase": -17.25, "LiHisRS": 15.38, "PfKRS1": -3.02}
{"smiles": "Cc1ccc(=O)n(CC2(O)CCN(Cc3cc(C)c(O)c(C)c3)CC2)n1", "MtTrpRS": 1.756, "Pks13 thioesterase": -13.66, "LiHisRS": 27.78, "PfKRS1": 2.021}

Repeated from the top, 2 entries:

SMILES,MtTrpRS,Pks13 thioesterase,LiHisRS,PfKRS1
Cn1cccc1C(=O)N1C[C@@H]2CCCO[C@@H]2[C@H](N2CCOCC2)C1,-3.171%,-38.07%,17.54%,0.7467%
CCS(=O)(=O)N1CCC(n2nc(-c3cc(C)oc3C)ccc2=O)CC1,-4.28%,3.667%,2.817%,4.431%